Results as given in the supplement of paper PMC10849652.
Some of the results follow.

The chains behind the UniProt entries cited, without tags or fusion partners. Where a name states a change or a piece, a line headed by the entry shows the natural chain unless it says otherwise.
UniProt Q9BVQ7: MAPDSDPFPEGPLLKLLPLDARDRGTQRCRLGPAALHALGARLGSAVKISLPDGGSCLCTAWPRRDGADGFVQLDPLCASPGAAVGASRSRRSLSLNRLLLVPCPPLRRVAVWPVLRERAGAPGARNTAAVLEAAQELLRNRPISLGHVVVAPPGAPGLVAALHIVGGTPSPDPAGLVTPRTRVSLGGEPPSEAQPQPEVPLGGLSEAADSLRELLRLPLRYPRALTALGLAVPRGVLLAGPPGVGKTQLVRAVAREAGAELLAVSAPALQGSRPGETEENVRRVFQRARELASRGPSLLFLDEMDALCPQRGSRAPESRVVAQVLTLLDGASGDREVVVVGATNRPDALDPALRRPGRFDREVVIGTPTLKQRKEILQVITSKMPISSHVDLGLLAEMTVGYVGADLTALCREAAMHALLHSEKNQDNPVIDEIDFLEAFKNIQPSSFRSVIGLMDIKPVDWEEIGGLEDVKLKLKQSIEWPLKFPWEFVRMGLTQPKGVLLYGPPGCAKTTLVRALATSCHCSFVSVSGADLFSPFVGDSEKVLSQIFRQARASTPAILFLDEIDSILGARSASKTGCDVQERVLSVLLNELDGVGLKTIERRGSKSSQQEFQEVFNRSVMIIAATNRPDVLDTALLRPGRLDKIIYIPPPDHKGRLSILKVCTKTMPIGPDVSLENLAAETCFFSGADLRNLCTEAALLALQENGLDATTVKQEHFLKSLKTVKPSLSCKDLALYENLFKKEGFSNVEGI
UniProt Q8IYB3: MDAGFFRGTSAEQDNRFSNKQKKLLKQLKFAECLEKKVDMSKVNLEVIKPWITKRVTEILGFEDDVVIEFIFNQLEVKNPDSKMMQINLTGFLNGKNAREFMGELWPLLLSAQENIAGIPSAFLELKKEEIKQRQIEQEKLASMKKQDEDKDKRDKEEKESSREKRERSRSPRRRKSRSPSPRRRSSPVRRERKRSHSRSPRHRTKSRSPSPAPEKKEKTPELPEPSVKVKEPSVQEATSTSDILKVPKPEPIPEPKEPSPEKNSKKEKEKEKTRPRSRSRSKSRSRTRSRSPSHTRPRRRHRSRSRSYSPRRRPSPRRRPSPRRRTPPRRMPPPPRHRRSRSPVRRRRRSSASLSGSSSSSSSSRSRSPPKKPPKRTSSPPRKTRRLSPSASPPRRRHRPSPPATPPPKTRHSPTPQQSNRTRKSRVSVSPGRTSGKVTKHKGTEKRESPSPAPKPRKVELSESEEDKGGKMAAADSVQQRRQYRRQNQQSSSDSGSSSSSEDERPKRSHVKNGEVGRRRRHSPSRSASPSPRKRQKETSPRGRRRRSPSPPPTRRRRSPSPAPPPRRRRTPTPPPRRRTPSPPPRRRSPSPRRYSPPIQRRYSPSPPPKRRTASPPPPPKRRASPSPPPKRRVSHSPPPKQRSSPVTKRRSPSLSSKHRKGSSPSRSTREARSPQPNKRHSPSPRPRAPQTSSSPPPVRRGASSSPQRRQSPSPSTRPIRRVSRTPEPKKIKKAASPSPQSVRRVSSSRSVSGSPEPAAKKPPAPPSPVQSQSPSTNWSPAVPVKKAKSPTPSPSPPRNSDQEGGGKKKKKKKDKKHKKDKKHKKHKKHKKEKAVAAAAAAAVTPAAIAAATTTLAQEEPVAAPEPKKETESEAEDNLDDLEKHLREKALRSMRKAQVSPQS
UniProt Q9Y6E0: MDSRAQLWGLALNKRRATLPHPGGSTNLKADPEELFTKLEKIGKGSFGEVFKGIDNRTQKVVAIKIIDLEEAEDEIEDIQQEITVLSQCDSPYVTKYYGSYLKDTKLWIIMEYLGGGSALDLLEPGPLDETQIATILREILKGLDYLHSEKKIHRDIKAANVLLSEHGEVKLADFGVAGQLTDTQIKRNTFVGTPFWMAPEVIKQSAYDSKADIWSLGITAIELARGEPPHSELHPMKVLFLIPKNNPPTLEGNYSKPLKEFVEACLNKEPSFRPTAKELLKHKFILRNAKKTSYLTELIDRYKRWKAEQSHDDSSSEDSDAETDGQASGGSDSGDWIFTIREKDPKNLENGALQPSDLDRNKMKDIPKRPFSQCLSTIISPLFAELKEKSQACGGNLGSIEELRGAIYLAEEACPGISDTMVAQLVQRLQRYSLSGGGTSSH
UniProt Q9BXP5: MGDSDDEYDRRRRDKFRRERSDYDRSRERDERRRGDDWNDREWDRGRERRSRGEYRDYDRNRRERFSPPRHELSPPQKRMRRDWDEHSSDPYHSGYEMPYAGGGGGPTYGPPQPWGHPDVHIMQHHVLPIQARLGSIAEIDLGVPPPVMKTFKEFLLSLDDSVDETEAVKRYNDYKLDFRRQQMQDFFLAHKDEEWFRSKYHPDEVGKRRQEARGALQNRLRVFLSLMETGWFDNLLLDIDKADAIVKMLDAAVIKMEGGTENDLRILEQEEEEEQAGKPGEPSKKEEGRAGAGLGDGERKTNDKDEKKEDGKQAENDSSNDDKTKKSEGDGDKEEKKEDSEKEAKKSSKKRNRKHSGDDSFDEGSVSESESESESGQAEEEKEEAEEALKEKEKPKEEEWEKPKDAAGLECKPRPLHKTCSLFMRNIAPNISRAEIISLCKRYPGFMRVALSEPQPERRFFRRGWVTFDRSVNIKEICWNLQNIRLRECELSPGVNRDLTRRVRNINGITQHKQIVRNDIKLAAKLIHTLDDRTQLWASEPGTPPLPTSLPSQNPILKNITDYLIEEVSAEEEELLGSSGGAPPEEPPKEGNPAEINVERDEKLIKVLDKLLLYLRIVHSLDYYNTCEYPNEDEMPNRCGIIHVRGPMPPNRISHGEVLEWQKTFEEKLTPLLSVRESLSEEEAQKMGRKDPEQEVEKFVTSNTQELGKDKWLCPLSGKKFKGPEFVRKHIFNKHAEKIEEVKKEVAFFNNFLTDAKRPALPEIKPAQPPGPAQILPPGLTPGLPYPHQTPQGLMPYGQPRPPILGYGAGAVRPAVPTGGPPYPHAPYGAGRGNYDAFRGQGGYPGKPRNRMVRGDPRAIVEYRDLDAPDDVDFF
UniProt Q96SB4, whole entry, looked up: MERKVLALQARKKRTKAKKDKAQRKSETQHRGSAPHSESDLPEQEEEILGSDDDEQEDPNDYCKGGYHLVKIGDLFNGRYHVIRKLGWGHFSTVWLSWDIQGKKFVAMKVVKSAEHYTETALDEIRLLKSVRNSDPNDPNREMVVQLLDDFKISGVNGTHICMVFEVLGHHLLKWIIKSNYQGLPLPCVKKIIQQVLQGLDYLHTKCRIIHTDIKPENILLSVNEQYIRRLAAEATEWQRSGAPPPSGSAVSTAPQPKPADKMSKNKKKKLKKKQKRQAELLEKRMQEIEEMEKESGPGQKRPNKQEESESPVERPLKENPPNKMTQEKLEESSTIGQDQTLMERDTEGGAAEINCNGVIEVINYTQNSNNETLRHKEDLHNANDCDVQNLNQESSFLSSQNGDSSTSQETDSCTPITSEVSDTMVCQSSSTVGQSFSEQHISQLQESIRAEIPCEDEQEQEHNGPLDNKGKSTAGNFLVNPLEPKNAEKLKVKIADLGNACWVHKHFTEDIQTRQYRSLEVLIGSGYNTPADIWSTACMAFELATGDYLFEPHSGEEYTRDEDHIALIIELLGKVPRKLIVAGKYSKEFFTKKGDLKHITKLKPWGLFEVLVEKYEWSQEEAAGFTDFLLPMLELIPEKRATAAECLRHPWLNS
UniProt Q9NYA1, whole entry, looked up: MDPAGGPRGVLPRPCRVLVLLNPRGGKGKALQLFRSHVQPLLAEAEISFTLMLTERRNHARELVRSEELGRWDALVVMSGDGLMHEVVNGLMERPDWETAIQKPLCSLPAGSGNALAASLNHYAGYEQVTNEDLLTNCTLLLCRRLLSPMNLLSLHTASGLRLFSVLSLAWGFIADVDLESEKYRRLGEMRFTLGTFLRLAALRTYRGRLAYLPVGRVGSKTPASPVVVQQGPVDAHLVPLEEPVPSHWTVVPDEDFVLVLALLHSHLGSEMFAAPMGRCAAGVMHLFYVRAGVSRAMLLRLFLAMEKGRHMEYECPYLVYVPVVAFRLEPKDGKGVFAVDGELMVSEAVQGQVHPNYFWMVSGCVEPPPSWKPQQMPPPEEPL
UniProt Q13243: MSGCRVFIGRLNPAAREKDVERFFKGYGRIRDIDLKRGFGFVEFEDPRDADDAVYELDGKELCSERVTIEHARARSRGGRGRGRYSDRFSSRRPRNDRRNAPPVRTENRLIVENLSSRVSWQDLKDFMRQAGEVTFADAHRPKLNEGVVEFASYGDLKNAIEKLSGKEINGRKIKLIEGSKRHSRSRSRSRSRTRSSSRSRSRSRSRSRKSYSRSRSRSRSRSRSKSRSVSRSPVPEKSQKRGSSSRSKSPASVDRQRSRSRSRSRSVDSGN
UniProt Q8WW59: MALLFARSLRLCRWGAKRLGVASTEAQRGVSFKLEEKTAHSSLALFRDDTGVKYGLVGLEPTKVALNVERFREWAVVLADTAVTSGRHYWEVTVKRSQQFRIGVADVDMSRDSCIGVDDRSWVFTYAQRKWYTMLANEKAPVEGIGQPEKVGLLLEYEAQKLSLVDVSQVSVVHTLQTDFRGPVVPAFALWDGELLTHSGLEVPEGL
UniProt Q14534: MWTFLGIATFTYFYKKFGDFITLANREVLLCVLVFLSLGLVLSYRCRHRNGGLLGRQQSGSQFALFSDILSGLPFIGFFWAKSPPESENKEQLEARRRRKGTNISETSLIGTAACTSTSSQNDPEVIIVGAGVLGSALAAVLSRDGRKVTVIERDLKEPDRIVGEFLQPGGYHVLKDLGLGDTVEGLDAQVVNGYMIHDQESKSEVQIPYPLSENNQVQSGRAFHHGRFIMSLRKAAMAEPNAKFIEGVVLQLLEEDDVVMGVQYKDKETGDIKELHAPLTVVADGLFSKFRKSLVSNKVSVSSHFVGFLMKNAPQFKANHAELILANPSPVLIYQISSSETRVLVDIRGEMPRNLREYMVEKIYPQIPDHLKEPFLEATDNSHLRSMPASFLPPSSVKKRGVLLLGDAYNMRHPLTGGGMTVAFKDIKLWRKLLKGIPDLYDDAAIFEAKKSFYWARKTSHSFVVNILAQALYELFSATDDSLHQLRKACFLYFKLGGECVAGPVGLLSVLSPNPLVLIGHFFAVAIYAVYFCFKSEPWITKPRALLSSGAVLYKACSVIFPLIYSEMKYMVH
UniProt P61009: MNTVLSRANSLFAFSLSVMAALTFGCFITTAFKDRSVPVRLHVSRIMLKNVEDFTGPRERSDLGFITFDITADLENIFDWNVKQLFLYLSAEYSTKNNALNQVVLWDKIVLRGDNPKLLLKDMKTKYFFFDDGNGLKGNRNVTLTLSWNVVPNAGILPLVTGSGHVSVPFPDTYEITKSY
UniProt P78362, whole entry, looked up: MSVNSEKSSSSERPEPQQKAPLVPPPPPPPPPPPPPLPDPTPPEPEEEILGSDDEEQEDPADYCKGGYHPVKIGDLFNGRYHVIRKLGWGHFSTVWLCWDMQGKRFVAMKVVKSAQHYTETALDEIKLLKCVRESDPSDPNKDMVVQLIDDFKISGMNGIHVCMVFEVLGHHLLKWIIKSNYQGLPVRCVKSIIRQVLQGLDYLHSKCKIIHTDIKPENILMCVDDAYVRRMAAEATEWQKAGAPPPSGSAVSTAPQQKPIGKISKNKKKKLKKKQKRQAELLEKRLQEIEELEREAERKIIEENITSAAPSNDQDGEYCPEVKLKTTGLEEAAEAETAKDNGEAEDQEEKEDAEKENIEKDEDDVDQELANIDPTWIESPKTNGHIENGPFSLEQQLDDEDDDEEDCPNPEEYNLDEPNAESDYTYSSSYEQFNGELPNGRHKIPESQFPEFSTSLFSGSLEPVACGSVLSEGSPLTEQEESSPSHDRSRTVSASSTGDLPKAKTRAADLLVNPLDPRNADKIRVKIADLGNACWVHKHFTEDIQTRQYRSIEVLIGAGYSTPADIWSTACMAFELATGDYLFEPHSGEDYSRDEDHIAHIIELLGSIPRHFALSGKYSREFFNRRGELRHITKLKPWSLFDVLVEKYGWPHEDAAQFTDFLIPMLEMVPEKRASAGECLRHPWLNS
UniProt P50502: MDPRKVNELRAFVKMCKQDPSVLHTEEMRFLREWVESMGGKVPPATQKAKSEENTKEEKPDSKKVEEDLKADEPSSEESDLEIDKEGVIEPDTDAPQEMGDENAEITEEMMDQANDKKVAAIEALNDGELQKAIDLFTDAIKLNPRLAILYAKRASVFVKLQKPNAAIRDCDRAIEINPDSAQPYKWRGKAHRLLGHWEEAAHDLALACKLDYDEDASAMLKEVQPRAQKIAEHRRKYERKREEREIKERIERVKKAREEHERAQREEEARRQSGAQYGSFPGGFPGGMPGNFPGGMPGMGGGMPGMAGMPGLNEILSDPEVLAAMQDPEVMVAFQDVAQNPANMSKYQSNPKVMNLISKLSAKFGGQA
UniProt Q9HD15: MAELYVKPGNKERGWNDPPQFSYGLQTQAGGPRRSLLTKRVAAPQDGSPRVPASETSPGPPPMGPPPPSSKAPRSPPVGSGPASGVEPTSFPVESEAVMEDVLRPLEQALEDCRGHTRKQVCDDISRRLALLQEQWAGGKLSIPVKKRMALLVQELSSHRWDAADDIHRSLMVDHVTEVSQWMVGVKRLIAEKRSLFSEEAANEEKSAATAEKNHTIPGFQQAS

Legend:
Test in all cases: log2 fold change, soluble protein after heating vs DMSO (PISA); higher = thermal stabilisation; K562 cells, 10 uM, 30 min; active = over 0.2 and 3.5 SD of the protein, either way, in both replicates (recomputed)
[1] = compound: CC1=C(C=C(C=C1)NC(=O)C2=CC(=CC=C2)C(C)(C)C#N)NC3=CC4=C(C=C3)N=CN(C4=O)C
Summary of the method: (§1)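 Quantification of soluble protein used TMTpro 16plex LC-MS/MS, with channel sums equalised. Samples were the supernatant after 21,000xg for 90 min of pooled aliquots from K562 cells (2×10^6 cells/mL) treated with 10 μM compound for 30 min, heated for 3 min over 48°C-58°C, and extracted in PBS with 0.5% NP-40 at 4°C. Values, from duplicates, describe thermal stability against control samples on a log2 fold-change scale.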

[2] = compound: CC1=C(C=C(C=C1)NC(=O)C2=CC(=CC=C2)N(C)C)NC(=O)C3=CC=C(C=C3)O
Summary of the method: as §1

[3] = compound: CC1=CC=C(C=C1)SC2=C3C=C(SC3=CN=C2)C(=O)N
Summary of the method: as §1

[4] = compound: CC1=NC(=CC=C1)C2=C(N=C(N2)C(C)(C)C)C3=CC4=NC=CN=C4C=C3
Summary of the method: as §1

Nexturastat A = compound: CCCCN(Cc1ccc(C(=O)NO)cc1)C(=O)Nc1ccccc1 [Nexturastat A]
Summary of the method: as §1

vemurafenib = compound: CCCS(=O)(=O)Nc1ccc(F)c(C(=O)c2c[nH]c3ncc(-c4ccc(Cl)cc4)cc23)c1F [vemurafenib]
Summary of the method: as §1

[5] = compound: CCCS(=O)(=O)Nc1ccc(F)c(C(=O)c2c[nH]c3ncc(Cl)cc23)c1F
Summary of the method: as §1

[6] = compound: CCCc1cc(C)[nH]c(=O)c1CNC(=O)c1cc(-c2ccnc(N3CCN(C)CC3)c2)cc2c1cnn2C(C)C
Summary of the method: as §1

givinostat = compound: CCN(CC)Cc1ccc2cc(COC(=O)Nc3ccc(C(=O)NO)cc3)ccc2c1 [givinostat]
Summary of the method: as §1

barasertib = compound: CCN(CCCOc1ccc2c(Nc3cc(CC(=O)Nc4cccc(F)c4)[nH]n3)ncnc2c1)CCOP(=O)(O)O [barasertib]
Summary of the method: as §1

[7] = compound: CC[C@@H]1C(=O)N(C)c2cnc(Nc3ccc(C(=O)NC4CCN(C)CC4)cc3OC)nc2N1C1CCCC1
Summary of the method: as §1

volasertib = compound: CC[C@@H]1C(=O)N(C)c2cnc(Nc3ccc(C(=O)N[C@H]4CC[C@H](N5CCN(CC6CC6)CC5)CC4)cc3OC)nc2N1C(C)C [volasertib]
Summary of the method: as §1

[8] = compound: CC[C@H](C)N1C=C(C2=C(C=C(C=C21)C3=CN=C(C=C3)N4CCNCC4)C(=O)NCC5=C(C=C(NC5=O)C)C)C
Summary of the method: as §1

epoxomicin = compound: CC[C@H](C)[C@@H](C(=O)N[C@@H]([C@@H](C)O)C(=O)N[C@@H](CC(C)C)C(=O)[C@]1(CO1)C)NC(=O)[C@H]([C@@H](C)CC)N(C)C(=O)C [epoxomicin]
Summary of the method: as §1

[9] = compound: CCn1c(C(=O)N(C2CC2)C2CC2)cc2c3c(ncn3C)c(Nc3cc(C)n(C)n3)nc21
Summary of the method: as §1

[10] = compound: CCn1cc(-c2ccnc3[nH]c(-c4cccc(CN(C)C)c4)cc23)c(-c2ccc(NC(=O)N(C)C)cc2)n1
Summary of the method: as §1

[11] = compound: CN(C)CC(=O)Nc1ccc2[nH]c(=O)c3ccccc3c2c1
Summary of the method: as §1

rosiglitazone = compound: CN(CCOC1=CC=C(C=C1)C[C@H]2C(=O)NC(=O)S2)C3=CC=CC=N3 (racemic) [rosiglitazone]
Summary of the method: as §1

[12] = compound: CN1C2=C(C3=C1C(=O)N(N=C3)CC4=CC(=CC=C4)N)SC(=C2)S(=O)C
Summary of the method: as §1

[13] = compound: CN1CCC(CNc2ccc3ncc(-c4cccc(OC(F)(F)F)c4)n3n2)CC1
Summary of the method: as §1

Measured: log2 fold change

SPATA5L1 (UniProt Q9BVQ7)
inactive: [1] -0.029 | [2] 0.006 | [3] -0.022 | [4] -0.012 | Nexturastat A 0.053 | vemurafenib -0.052 | [5] -0.043 | [6] 0.003 | givinostat 0.009 | barasertib -0.014 | [7] 0.026 | volasertib 0.051 | [8] -0.015 | epoxomicin -0.015 | [9] -0.008 | [10] 0.044 | [11] -0.039 | rosiglitazone -0.028 | [12] -0.01 | [13] 0.075

SRRM1 (UniProt Q8IYB3)
inactive: [1] 0.007 | [2] 0.032 | [3] -0.084 | [4] -0.048 | Nexturastat A 0.092 | vemurafenib -0.05 | [5] -0.018 | [6] -0.149 | givinostat -0.023 | barasertib -0.048 | [7] 0.114 | volasertib 0.212 | [8] -0.004 | epoxomicin -0.107 | [9] 0.058 | [10] 0.221 | [11] -0.055 | rosiglitazone -0.001 | [12] 0.13 | [13] 0.14

STK24 (UniProt Q9Y6E0)
inactive: [1] -0.076 | [2] 0.005 | [3] -0.004 | [4] 0.065 | Nexturastat A -0.035 | vemurafenib -0.006 | [5] 0.006 | [6] -0.012 | givinostat -0.001 | barasertib 0.004 | [7] 0 | volasertib -0.09 | [8] 0.032 | epoxomicin 0.017 | [9] 0.035 | [10] 0.012 | [11] 0.022 | rosiglitazone 0.045 | [12] -0.044 | [13] -0.189

SRRT (UniProt Q9BXP5)
inactive: [1] 0.115 | [2] -0.158 | [3] 0.099 | [4] 0.137 | Nexturastat A -0.087 | vemurafenib 0.118 | [5] 0.17 | [6] 0.089 | givinostat 0.204 | barasertib 0.105 | [7] -0.138 | volasertib -0.375 | [8] 0.182 | epoxomicin 0.16 | [9] -0.107 | [10] -0.105 | [11] 0.17 | rosiglitazone 0.143 | [12] -0.061 | [13] -0.221

SPTAN1 isoform 2 (UniProt Q13813)
inactive: [1] 0.044 | [2] 0.014 | [3] -0.022 | [4] -0.025 | Nexturastat A 0.03 | vemurafenib -0.01 | [5] -0.043 | [6] -0.015 | givinostat 0.017 | barasertib -0.01 | [7] 0.191 | volasertib 0.046 | [8] -0.014 | epoxomicin -0.045 | [9] -0.018 | [10] 0.007 | [11] -0.026 | rosiglitazone -0.06 | [12] 0.053 | [13] 0.095

SRPK1 (UniProt Q96SB4)
inactive: [1] 0.092 | [2] 0 | [3] -0.061 | [4] -0.107 | Nexturastat A 0.288 | vemurafenib -0.14 | [5] -0.033 | [6] 0.122 | givinostat -0.001 | barasertib -0.094 | [7] 0.264 | volasertib 0.422 | [8] 0.011 | epoxomicin -0.303 | [9] 0.01 | [10] 0.235 | [11] -0.206 | rosiglitazone -0.129 | [12] 0.282 | [13] 0.262

SPHK1 isoform 2 (UniProt Q9NYA1)
inactive: [1] -0.028 | [2] 0.056 | [3] 0.085 | [4] 0.006 | Nexturastat A -0.162 | vemurafenib 0.018 | [5] 0.074 | [6] -0.089 | givinostat 0.054 | barasertib 0.035 | [7] -0.045 | volasertib -0.056 | [8] -0.052 | epoxomicin 0.036 | [9] -0.005 | [10] -0.093 | [11] 0.002 | rosiglitazone 0.098 | [12] -0.171 | [13] -0.009

Two neighbouring entries out of the list so far, for reference:
SRRM1 (UniProt Q8IYB3)
inactive: [1] 0.007 | [2] 0.032 | [3] -0.084 | [4] -0.048 | Nexturastat A 0.092 | vemurafenib -0.05 | [5] -0.018 | [6] -0.149 | givinostat -0.023 | barasertib -0.048 | [7] 0.114 | volasertib 0.212 | [8] -0.004 | epoxomicin -0.107 | [9] 0.058 | [10] 0.221 | [11] -0.055 | rosiglitazone -0.001 | [12] 0.13 | [13] 0.14

STK24 (UniProt Q9Y6E0)
inactive: [1] -0.076 | [2] 0.005 | [3] -0.004 | [4] 0.065 | Nexturastat A -0.035 | vemurafenib -0.006 | [5] 0.006 | [6] -0.012 | givinostat -0.001 | barasertib 0.004 | [7] 0 | volasertib -0.09 | [8] 0.032 | epoxomicin 0.017 | [9] 0.035 | [10] 0.012 | [11] 0.022 | rosiglitazone 0.045 | [12] -0.044 | [13] -0.189

(list continues)

SRSF5 (UniProt Q13243)
inactive: [1] 0 | [2] -0.026 | [3] -0.056 | [4] -0.095 | Nexturastat A 0.204 | vemurafenib -0.033 | [5] -0.046 | [6] 0.109 | givinostat 0.112 | barasertib -0.078 | [7] 0.144 | volasertib 0.317 | [8] 0.034 | epoxomicin -0.28 | [9] 0.044 | [10] 0.141 | [11] -0.063 | rosiglitazone -0.12 | [12] 0.209 | [13] 0.19

SPRYD4 (UniProt Q8WW59)
inactive: [1] 0.041 | [2] 0.014 | [3] 0.017 | [4] -0.017 | Nexturastat A 0.001 | vemurafenib 0.042 | [5] -0.015 | [6] -0.059 | givinostat -0.022 | barasertib 0.013 | [7] 0.041 | volasertib 0.093 | [8] -0.017 | epoxomicin -0.056 | [9] 0.012 | [10] -0.105 | [11] -0.02 | rosiglitazone 0.033 | [12] -0.103 | [13] 0.023

SQLE (UniProt Q14534)
inactive: [1] -0.009 | [2] -0.047 | [3] 0.064 | [4] -0.047 | Nexturastat A 0.003 | vemurafenib 0.034 | [5] 0.032 | [6] 0.054 | givinostat 0.046 | barasertib -0.022 | [7] 0.082 | volasertib 0.038 | [8] 0.06 | epoxomicin 0.172 | [9] -0.015 | [10] -0.04 | [11] 0.101 | rosiglitazone 0.041 | [12] -0.073 | [13] 0.047

SPCS3 (UniProt P61009)
inactive: [1] -0.081 | [2] 0.016 | [3] -0.057 | [4] -0.002 | Nexturastat A -0.045 | vemurafenib 0.018 | [5] -0.01 | [6] 0.055 | givinostat -0.057 | barasertib 0.051 | [7] 0.012 | volasertib 0.04 | [8] 0.044 | epoxomicin -0.058 | [9] 0.002 | [10] 0.036 | [11] -0.003 | rosiglitazone -0.002 | [12] 0.021 | [13] 0.087

SPCS1, A0A5F9YFS9
inactive: [1] -0.072 | [2] 0.007 | [3] 0.179 | [4] 0.049 | Nexturastat A 0.039 | vemurafenib 0.038 | [5] 0.157 | [6] -0.004 | givinostat -0.044 | barasertib -0.028 | [7] -0.189 | volasertib -0.052 | [8] 0.002 | epoxomicin -0.122 | [9] 0.033 | [10] -0.019 | [11] 0.027 | rosiglitazone 0.006 | [12] -0.159 | [13] 0.033

SRPK2 isoform 2 (UniProt P78362)
inactive: [1] 0.015 | [2] 0 | [3] -0.036 | [4] -0.085 | Nexturastat A 0.149 | vemurafenib -0.092 | [5] -0.103 | [6] 0.09 | givinostat -0.057 | barasertib -0.05 | [7] 0.117 | volasertib 0.433 | [8] 0.026 | epoxomicin -0.338 | [9] -0.021 | [10] 0.217 | [11] -0.162 | rosiglitazone -0.075 | [12] 0.354 | [13] 0.263

SPTA1 (UniProt P02549)
inactive: [1] -0.019 | [2] 0.055 | [3] -0.02 | [4] -0.055 | Nexturastat A 0.297 | vemurafenib 0.038 | [5] 0.07 | [6] 0.102 | givinostat 0.097 | barasertib 0.031 | [7] 0.022 | volasertib -0.277 | [8] 0.055 | epoxomicin -0.069 | [9] -0.047 | [10] 0.13 | [11] 0.026 | rosiglitazone -0.005 | [12] 0.302 | [13] -0.07

ST13 (UniProt P50502)
inactive: [1] 0.029 | [2] 0.003 | [3] 0.023 | [4] 0.033 | Nexturastat A -0.101 | vemurafenib 0.008 | [5] 0.021 | [6] -0.007 | givinostat -0.008 | barasertib 0.032 | [7] -0.014 | volasertib 0.019 | [8] 0.042 | epoxomicin 0.011 | [9] 0.039 | [10] -0.09 | [11] 0.021 | rosiglitazone 0.049 | [12] -0.078 | [13] -0.053

SRA1 (UniProt Q9HD15)
inactive: [1] 0.002 | [2] -0.034 | [3] 0.003 | [4] 0.043 | Nexturastat A -0.01 | vemurafenib 0.025 | [5] 0.014 | [6] 0.013 | givinostat -0.025 | barasertib 0.017 | [7] 0.018 | volasertib -0.034 | [8] -0.011 | epoxomicin 0.03 | [9] -0.022 | [10] -0.001 | [11] -0.008 | rosiglitazone 0.029 | [12] -0.074 | [13] -0.064
